Results published in publication PMC9098523.
No constants are given. Whether binding was seen depends on the method and setting. Binding seen in cells or lysates may run through a third protein. Some entries that bind do so weakly or less than the wild type. For some assays here: Sequences can lack the tags named with a protein.

Protein sequences, listed by entry. Tags and fused reporters are not part of them. Lines headed by an entry give the natural chain unless they say otherwise; changes in a name come on top.
UniProt P49959: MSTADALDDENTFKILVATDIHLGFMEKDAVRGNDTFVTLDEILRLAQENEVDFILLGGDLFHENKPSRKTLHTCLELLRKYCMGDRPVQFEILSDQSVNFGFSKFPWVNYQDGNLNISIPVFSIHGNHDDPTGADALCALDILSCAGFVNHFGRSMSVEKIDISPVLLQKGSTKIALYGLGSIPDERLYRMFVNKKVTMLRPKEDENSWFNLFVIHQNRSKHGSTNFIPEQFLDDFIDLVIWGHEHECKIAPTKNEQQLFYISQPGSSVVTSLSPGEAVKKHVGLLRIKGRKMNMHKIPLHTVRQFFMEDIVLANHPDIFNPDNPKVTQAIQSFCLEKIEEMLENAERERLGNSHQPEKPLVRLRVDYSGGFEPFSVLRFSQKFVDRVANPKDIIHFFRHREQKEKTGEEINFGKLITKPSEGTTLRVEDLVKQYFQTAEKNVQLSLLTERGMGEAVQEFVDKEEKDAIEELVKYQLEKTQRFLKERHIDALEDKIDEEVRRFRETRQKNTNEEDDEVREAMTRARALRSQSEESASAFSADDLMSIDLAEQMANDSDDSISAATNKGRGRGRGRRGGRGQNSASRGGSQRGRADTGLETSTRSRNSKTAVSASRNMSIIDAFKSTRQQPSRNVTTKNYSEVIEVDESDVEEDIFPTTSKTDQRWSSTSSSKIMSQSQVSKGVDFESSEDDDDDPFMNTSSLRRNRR

Assays:
[1] = target: T1, MRNIP-GFP (purified recombinant protein, forms droplets in vitro) (human) (UniProt Q6NTE8); experiment: co-sedimentation; droplet pelleting: MRNIP-GFP incubated with HeLa nuclear protein (1 μg/μL; legend: 10 µg) in 20 mM Tris-HCl pH 7.4, 150 mM NaCl, 20 min at 20 °C, centrifuged at 10,000 x g, 4 °C, 10 min; pellet immunoblotted; only the target purified
T1 sequence: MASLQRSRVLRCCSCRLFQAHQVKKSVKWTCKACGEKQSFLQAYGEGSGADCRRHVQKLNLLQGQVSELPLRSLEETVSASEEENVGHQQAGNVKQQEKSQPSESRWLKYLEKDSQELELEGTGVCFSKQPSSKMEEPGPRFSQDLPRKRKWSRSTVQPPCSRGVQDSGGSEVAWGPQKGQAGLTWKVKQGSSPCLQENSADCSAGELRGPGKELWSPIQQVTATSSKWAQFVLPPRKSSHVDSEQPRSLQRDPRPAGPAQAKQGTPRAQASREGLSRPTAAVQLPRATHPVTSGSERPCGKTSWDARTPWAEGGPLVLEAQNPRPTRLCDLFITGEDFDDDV

[2] = target: T2, IDR1-deleted MRNIP (co-immunoprecipitation) (human) (UniProt Q6NTE8); experiment: co-IP; co-immunoprecipitation of wildtype or IDR1-deleted MRNIP with MRE11 / MRN complex; cells, bait and conditions not described
T2 sequence: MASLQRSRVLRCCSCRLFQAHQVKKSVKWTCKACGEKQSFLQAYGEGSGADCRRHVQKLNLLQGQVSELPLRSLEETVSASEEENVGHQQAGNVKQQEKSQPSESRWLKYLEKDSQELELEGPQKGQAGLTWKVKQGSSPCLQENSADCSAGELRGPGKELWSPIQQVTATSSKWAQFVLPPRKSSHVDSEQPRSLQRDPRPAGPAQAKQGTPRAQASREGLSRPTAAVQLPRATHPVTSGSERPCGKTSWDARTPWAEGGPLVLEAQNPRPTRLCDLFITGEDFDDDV

Row | binding [1] | binding [2] | Substance
1 | binds | – | MRE11/RAD50/NBS1 (MRN) complex of HeLa nuclear extract (from UniProt P49959 1-708; Q92878 1-1312; O60934 1-754)
2 | – | no binding | MRN complex (co-immunoprecipitation) (from UniProt P49959 1-708; Q92878 1-1312; O60934 1-754)
